This is an account of results in PubChem BioAssay AID200 (DTP/NCI, 2004).

The assay has as its system B6C3F1 mice, B16 melanoma ip, median survival T/C. Description: NCI In Vivo Anticancer Drug Screen. Data for tumor model B16 Melanoma (intraperitoneal) in B6C3F1 mice. The note with it: T/C endpoint: median survival time, schedule: Q01DX009 (ip), higher T/C = longer survival. The essentials:
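Readout: survival or tumor size in treated mice relative to vehicle controls (T/C). Model uses transplantable tumors grown in mice.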

Setting [1] is: dose: 200.0 mg/kg/injection, vehicle: Klucel (hydroxypropylcellulose) (HPC).
[2] abbreviates: dose: 400.0 mg/kg/injection, vehicle: Klucel (hydroxypropylcellulose) (HPC).
The mark [3] stands for this setting: dose: 200.0 mg/kg/injection, vehicle: saline with Tween-80.
The mark [4] stands for this setting: dose: 400.0 mg/kg/injection, vehicle: saline with Tween-80.
Setting [5] is: dose: 12.5 mg/kg/injection, vehicle: saline with Tween-80.

The list shows only some results of the screen, not a fair sample: it gathers tests that were run many times, whatever their T/C, doses with no T/C, and many T/C values between a quarter and a half above the control. Other doses and runs of a compound stand elsewhere. T/C is the treated group as % of the vehicle group. Some entries give survivors of the animals treated and no T/C: the source holds a T/C of zero for them, seemingly a mark for toxic or unscored doses. Some survivor counts are full or nearly so, which does not show that the dose was tolerated: survival well below the control is almost never listed, so the zero probably covers shortened survival too. Survivors were counted at the toxicity check, usually on the fifth day, unless a day is given; later deaths do not show. Schedules are NCI's codes, taken here to give the interval after Q, in days (D) or hours (H), and the number of doses after X. Some entries were tested several times; the values are given in rising order. For survival time, the PubChem record calls one and a half times the control and up active, and a quarter to a half above the control has no call in these data; cut-offs in other NCI protocols can differ. Some T/C values carry the count of animals alive at the toxicity check (mostly the fifth day); without a count, all were alive then.

In the case of `Nc1c(/C=C/c2cc3cc(C4=NCCN4)ccc3o2)[nH]c2cc(C3=NCCN3)ccc12`, the survivor count runs as follows: (dose: 50.0 mg/kg/injection, vehicle: Klucel (hydroxypropylcellulose) (HPC)) 4 of 10; (dose: 100.0 mg/kg/injection, vehicle: Klucel (hydroxypropylcellulose) (HPC)) 6 of 10; under setting [1], 0 of 10.
As for `O=C(CCl)N1c2ccccc2Oc2cc3ccccc3cc21`, the T/C (dose: 50.0 mg/kg/injection, vehicle: saline) was 127 % of control.
For `CC(C)(C)SCC(NC(=O)OCC1c2ccccc2-c2ccccc21)C(=O)O` (configuration not stated), the survivor count was 1 of 10 under setting [1] and 0 of 10 under setting [2].
Take `OC1(CSc2ccccc2)CCCCC1`: the survivor count is, setting by setting: under setting [3], 7 of 10; under setting [4], 4 of 10.
With `CCN(CC)CCn1[nH]c2c3ccc(=O)cc3sc3c(NCCN)ccc1c32`, the T/C was 138 % of control (dose: 3.12 mg/kg/injection, vehicle: water) and 139 % of control (dose: 6.25 mg/kg/injection, vehicle: water). The survivor count is 10 of 10 (dose: 20.83 mg/kg/injection, vehicle: water); 9 of 10 (dose: 25.0 mg/kg/injection, vehicle: water); 6 of 10 (dose: 34.72 mg/kg/injection, vehicle: water).
Regarding `CC(=O)N(C)C`, the survivor count (dose: 3600.0 mg/kg/injection, vehicle: saline) is 6 of 10.
Regarding `CC[C@@]1(O)C(=O)OCc2c1cc1n(c2=O)Cc2cc3cc(O)ccc3nc2-1`, the T/C (dose: 0.1 mg/kg/injection, vehicle: other) is 129 % of control and the T/C (dose: 0.19 mg/kg/injection, vehicle: other) was 145 % of control. Also, the survivor count runs as follows: (dose: 3.0 mg/kg/injection, vehicle: other) 10 of 10; (dose: 6.0 mg/kg/injection, vehicle: suspension in saline) 10 of 10.
For the compound `C=C1C(O)C2(O)OCC34C(CC5C(C)=CC(=O)C(O)C5(C)C23)OC(=O)C(OC(=O)C/C=C/CCCCCCCC)C14` (configuration not stated), the survivor count is, setting by setting: (dose: 26.67 mg/kg/injection, vehicle: saline + Tween-80 + alcohol) 5 of 10; (dose: 32.0 mg/kg/injection, vehicle: saline + alcohol) 4 of 10; (dose: 44.44 mg/kg/injection, vehicle: saline + Tween-80 + alcohol) 0 of 10; (dose: 64.0 mg/kg/injection, vehicle: saline + alcohol) 0 of 10.
For the compound `NC(N)=NS(=O)(=O)c1ccc(NCc2c3ccccc3nc3ccccc23)cc1`, for the setting “dose: 12.5 mg/kg/injection, vehicle: Klucel (hydroxypropylcellulose) (HPC)”, the T/C was 144 % of control.
Consider `CC(C)CC(NC=O)C(=O)O` (configuration not stated), for which the survivor count runs as follows: under setting [1], 9 of 10; under setting [2], 8 of 10.
`Cc1cc2c(c3oc(C4(C)OC4C4OC4C)cc(=O)c13)C(=O)c1c(O)c(C3CC(C)(N(C)C)C(O)C(C)O3)cc(C3CC(N(C)C)C(O)C(C)O3)c1C2=O` (configuration not stated): the T/C is, setting by setting: (dose: 1.0 micrograms/kg/injection, vehicle: Klucel (hydroxypropylcellulose) (HPC)) 128 and 130 % of control; (dose: 2.0 micrograms/kg/injection, vehicle: Klucel (hydroxypropylcellulose) (HPC)) 145 % of control [9 of 10 alive]; (dose: 4.0 micrograms/kg/injection, vehicle: Klucel (hydroxypropylcellulose) (HPC)) 125 % of control. Further, the survivor count by setting is: (dose: 8.0 micrograms/kg/injection, vehicle: Klucel (hydroxypropylcellulose) (HPC)) 6 of 10 and 10 of 10; (dose: 20.0 micrograms/kg/injection, vehicle: saline) 10 of 10; (dose: 40.0 micrograms/kg/injection, vehicle: saline) 10 of 10; (dose: 80.0 micrograms/kg/injection, vehicle: saline) 9 of 10; (dose: 160.0 micrograms/kg/injection, vehicle: saline) 6 of 10; (dose: 320.0 micrograms/kg/injection, vehicle: saline) 0 of 10.
With `CC(=O)NC(C=O)OCC=O` (configuration not stated), the survivor count (dose: 200.0 mg/kg/injection, vehicle: water) is 7 of 10.
With `CN(C)CSCN(C)C`, the survivor count under setting [5] was 9 of 10.
Take `CNc1cccnc1/C=N/NC(N)=S`: the T/C under setting [5] is 139 % of control; the T/C (dose: 25.0 mg/kg/injection, vehicle: saline with Tween-80) is 144 and 146 % of control; the T/C (dose: 50.0 mg/kg/injection, vehicle: saline with Tween-80) is 149 % of control. In addition, the survivor count (dose: 100.0 mg/kg/injection, vehicle: saline with Tween-80) is 10 of 10; the survivor count under setting [3] is 8 of 10 and 9 of 10; the survivor count under setting [4] was 8 of 10.
